From PubChem BioAssay AID1487 (National Center for Advancing Translational Sciences (NCATS), 2009) come the findings set out here.

Some of the results follow. The main result of the screen is listed elsewhere. These columns were measured beside it and carry no call. Compounds called inactive in the main read-out are mostly missing here. The note in brackets gives the kind of curve behind each potency; many fits are weak.

The test is described as follows: qHTS Assay for Modulators of Lamin A Splicing. As to conditions: HeLa LMNA splicing GFP/RFP minigene ratio, 48 h. A digest of the protocol:
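S3 HeLa cells stably expressing lamin A-EGFP splicing minigene plus DsRed2, 600 cells/well, 48 h compound exposure at 37C. Laser-scanning cytometry; analysed as GFP (500-530 nm)/RFP (575-640 nm) total intensity ratio; 0.5% DMSO vehicle.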
A general note: qHTS replaces the single test concentration by a dilution series.

Setting [1] is: measured here: RFP viability control channel.
[2] abbreviates: measured here: GFP splicing reporter channel.

As to `Cc1ccc(NC(=S)NNC(=O)c2ccccc2O)c(C)c1`, under setting [1], the AC50 (commonly the midpoint of the concentration-response curve, whichever way the signal moves) was 4.47 µM [rising, full curve].
For the molecule `CCCN1CCCc2cc(CN(CCCN3CCOCC3)C(=O)Nc3ccc(Cl)c(Cl)c3)ccc21`, under setting [1], the AC50 was 0.1 µM [falling, full curve, poor fit].
For the molecule `Cc1cc(C)cc(-n2c(SCC(=O)Nc3ccc4c(c3)OCO4)nc3c([nH]c4ccccc43)c2=O)c1`, the AC50 under setting [1] is 7.94 µM [falling, full curve].
In the case of `O=C(Nc1nnc(SCc2ccccc2)s1)c1cccc([N+](=O)[O-])c1`, the AC50 under setting [2] was 17.8 µM [rising, single point] and the AC50 under setting [1] was 25.1 µM [rising, single point].
Regarding `COc1ccc2sc(N(Cc3cccnc3)C(=O)CCc3ccccc3)nc2c1`, the AC50 under setting [2] is 12.6 µM [falling, partial curve].
Regarding `Cc1onc(-c2ccccc2)c1C(=O)NNC(=S)NC(=O)c1ccc(F)cc1`, under setting [1], the AC50 was 12.6 µM [rising, single point].
In the case of `CCOC(=O)c1c(S(=O)(=O)N2CCC(C(=O)NCc3ccccc3Cl)CC2)c(C)n(C)c1C`, the AC50 under setting [2] was 0.00501 µM [falling, full curve, poor fit] and the AC50 under setting [1] was 3.55 µM [falling, partial curve, poor fit].
With `CCn1c(SCC(=O)Nc2cc(C(C)(C)C)nn2-c2ccccc2)nnc1-c1cccs1`, the AC50 reads like this: under setting [2], 35.5 µM [rising, single point]; under setting [1], 35.5 µM [rising, single point].
As for `Cc1cccc(N2CCN(C(=O)c3cnn(-c4ccccc4)c3C3CCN(C(=O)OC(C)(C)C)CC3)CC2)c1C`, the half-maximal activity concentration (AC50) under setting [1] is 35.5 µM [rising, single point].
Turning to `CCN(CC)c1ccc(/C=C(\C#N)c2nc(-c3cccs3)c(NC(C)=O)s2)cc1`, the AC50 is 3.55 µM [falling, partial curve, poor fit] under setting [2] and 2.82 µM [falling, single point] under setting [1].
Turning to `CC(c1cc2ccccc2s1)N(O)C(N)=O` (stereo not given), the AC50 under setting [2] is 0.794 µM [falling, single point].
In the case of `NS(=O)(=O)c1ccc(CCNCc2cc(Br)ccc2OCc2ccccc2)cc1`, the AC50 under setting [2] is 11.2 µM [rising, partial curve, poor fit] and the AC50 under setting [1] was 22.4 µM [rising, partial curve].
For `C=C1CCC2C(CC2(C)C)C(=C)CC/C1=N/O` (stereo not given), the concentration at half-maximal activity (AC50) under setting [2] is 5.01 µM [rising, single point].
Consider `CNc1nc(-c2ccoc2)nc2ccccc12`, for which the AC50 under setting [2] is 11.2 µM [falling, partial curve].
Regarding `Cn1nnnc1Sc1ccc([N+](=O)[O-])cc1Cl`, the half-maximal activity concentration (AC50) under setting [1] was 11.2 µM [rising, partial curve].
On to `Nc1ccccc1Sc1ccc(C(F)(F)F)cc1[N+](=O)[O-]`, for which the AC50 under setting [1] was 0.00447 µM [falling, full curve, poor fit].
Take `O=C(c1cccc(S(=O)(=O)NCc2ccccc2)c1)N1CCN(Cc2ccccc2)CC1`: the AC50 under setting [1] was 15.8 µM [rising, single point].
For `CCOC(=O)C1C(=O)NC(N2CCc3ccccc32)=NC1c1ccccc1` (stereo not given), the AC50 under setting [1] was 3.16 µM [rising, partial curve, poor fit].
Same read-out and setting: the result for `O=C(Nc1ccccc1F)C(=Cc1sc(N2CCOCC2)nc1-c1ccccc1)C(=O)Nc1ccccc1F` reads 2.82 µM [rising, full curve, poor fit].
Take `COc1ccc2c(c1)c(CC(=O)Nc1cc(C)ccc1C)c(C)n2C(=O)c1ccc(Cl)cc1`: the AC50 under setting [1] was 5.62 µM [rising, single point].
For the molecule `Cc1ccc(-n2nnnc2SCC(=O)Nc2cccc(NC(=O)c3ccco3)c2)cc1C`, the AC50 under setting [1] was 5.62 µM [falling, single point].
For the molecule `CN(Cc1ccccc1)S(=O)(=O)c1nnc(NC(=O)c2ccccc2Cl)s1`, the AC50 under setting [1] was 3.55 µM [rising, full curve, poor fit].
In the case of `Cc1ccc(/C=C/C(=O)c2c(C)cc(C)[nH]c2=O)cc1`, the AC50 runs as follows: under setting [2], 12.6 µM [falling, partial curve]; under setting [1], 22.4 µM [falling, single point].
With `CCCCN(c1ccccc1)c1ncnc(N)c1[N+](=O)[O-]`, under setting [1], the AC50 was 5.62 µM [falling, partial curve, poor fit].
Same read-out and setting: with `COc1cccc(/C=N/n2c(SC)nnc2-c2ccccc2)c1O` the figure was 12.6 µM [rising, single point]; with `COc1ccc(-c2nc(Cn3c(=O)cc(-c4ccccc4)c4c(C)nn(C)c43)c(C)o2)cc1OC`, 0.0562 µM [rising, full curve, poor fit].
For the molecule `Cc1nccc(-c2ccc(-n3c(C)ccc3C)cc2)n1`, the concentration at half-maximal activity (AC50) reads like this: under setting [2], 35.5 µM [rising, single point]; under setting [1], 35.5 µM [rising, single point].
Consider `CC1=C(/C=C/C(C)=C/C=C/C(C)=C/C(=O)Nc2ccc(O)cc2)C(C)(C)CCC1`, for which the AC50 is 35.5 µM [falling, single point] under setting [2] and 12.6 µM [falling, partial curve, poor fit] under setting [1].
As to `O=C(NCCCN1CCOCC1)c1cc(-c2ccc(Br)cc2)on1`, the AC50 is 7.94 µM [rising, partial curve] under setting [2] and 7.08 µM [rising, full curve] under setting [1].
As for `N/C(=N\OC(=O)COc1ccc(Br)cc1)c1ccncc1`, under setting [2], the AC50 was 7.94 µM [rising, partial curve].
Regarding `C[C@H](NC(=O)Nc1ccccc1F)C(=O)O`, the AC50 under setting [1] was 0.00501 µM [falling, full curve, poor fit].
Consider `CS(=O)(=O)C1=NSC2=NC(=O)/C(=C\c3cccn3-c3ccccc3Cl)C(=N)N21`, for which the AC50 under setting [2] was 0.224 µM [rising, single point].
Take `COC(=O)c1ccc(OC)c(CSc2nnc(COc3ccc(Cl)cc3)o2)c1`: the AC50 reads like this: under setting [2], 14.1 µM [rising, single point]; under setting [1], 22.4 µM [rising, single point].
For `Cc1occc1-c1nnc(SCC(=O)Nc2ccccc2)n1C(C)c1ccccc1` (stereo not given), under setting [2], the AC50 was 31.6 µM [rising, single point].
As to `CCc1c(C)nc2ncnn2c1N1CCCC(C(=O)NCc2ccc3c(c2)OCO3)C1` (stereo not given), the AC50 was 35.5 µM [rising, single point] under setting [2] and 35.5 µM [rising, partial curve, poor fit] under setting [1].
Regarding `Cc1ccc2nc(-c3ccc(SCC(=O)Nc4ccc5c(c4)OCCO5)nc3)[nH]c2c1`, under setting [1], the AC50 is 35.5 µM [rising, single point].
Same read-out and setting: the result for `CCOC(=O)Cn1c(S(=O)(=O)Cc2cccc(F)c2)nc(-c2ccccc2)c1-c1ccccc1` reads 11.2 µM [rising, single point].
Turning to `CCNC(=S)NNC(=O)c1cc(-c2cccc(OC)c2)nc2ccccc12`, the AC50 is 7.08 µM [rising, partial curve] under setting [2] and 11.2 µM [rising, partial curve] under setting [1].
In the case of `COc1ccc(C(=O)N2CCN(c3ccc([N+](=O)[O-])c(NCCc4ccc(OC)c(OC)c4)c3)CC2)cc1`, the AC50 was 0.398 µM [rising, full curve, poor fit] under setting [2] and 0.501 µM [rising, full curve] under setting [1].
On to `Cc1ccc(NC(=O)c2cc(S(=O)(=O)N3CCCCCC3)ccc2F)cc1F`, for which the AC50 was 39.8 µM [rising, partial curve, poor fit] under setting [2] and 10 µM [rising, partial curve] under setting [1].
Take `CCN1CCc2c(sc(-n3cccc3)c2C(C)NC(=O)Nc2cc(Cl)c(OC)cc2OC)C1` (stereo not given): the AC50 is 35.5 µM [rising, single point] under setting [2] and 35.5 µM [rising, single point] under setting [1].
In the case of `CCCC(=O)Nc1ccc(Cl)c(NC(=O)c2ccc(Br)o2)c1`, the half-maximal activity concentration (AC50) under setting [1] was 15.8 µM [rising, single point].
For the molecule `C/C(N)=C(/C#N)C(=O)CSc1nnnn1-c1ccc(C)cc1C`, the AC50 under setting [1] is 10 µM [rising, partial curve].
The same measure, in the same setting: the result for `Cn1cc(C(c2ccccn2)c2cn(C)c3ccccc23)c2ccccc21` reads 35.5 µM [rising, single point].
Regarding `COc1cc(NC(=O)CC2NCCNC2=O)cc(OC)c1` (stereo not given), the AC50 is 1.12 µM [falling, partial curve] under setting [2] and 1.78 µM [falling, partial curve] under setting [1].
With `CCOC(=O)c1c(C)oc2ccc(OCC(N)=O)cc12`, under setting [1], the concentration at half-maximal activity (AC50) is 1.41 µM [rising, partial curve, poor fit].
Turning to `Cc1cccc(N2CCN(C(=O)c3cnc4c(C)cccn4c3=O)CC2C)c1` (stereo not given), the AC50 under setting [2] was 0.00891 µM [falling, full curve, poor fit].
In the case of `CCOc1ccc(OCC)c(NC(=O)CN(C)S(=O)(=O)c2cccc3nsnc23)c1`, the half-maximal activity concentration (AC50) was 17.8 µM [rising, partial curve] under setting [2] and 17.8 µM [rising, single point] under setting [1].
Take `Cn1c(C(=O)Nc2ccc3c(c2)OCO3)cc2sccc21`: the AC50 under setting [1] was 12.6 µM [rising, single point].
As to `CC(=O)CCc1oc2ccc([N+](=O)[O-])cc2c1-c1ccc(C)o1`, the AC50 under setting [2] is 4.47 µM [falling, full curve, poor fit].
Take `COc1ccc(/C=N/N=C2/NC(=O)C(CC(=O)NC(N)=O)S2)cc1` (stereo not given): the half-maximal activity concentration (AC50) under setting [2] was 0.0316 µM [falling, full curve, poor fit] and the AC50 under setting [1] was 0.0112 µM [falling, full curve, poor fit].
`CCCCOC(=O)CSC1=C(C#N)C(c2ccccc2OCC)C(C#N)C(=O)N1` (stereo not given): under setting [2], the AC50 was 15.8 µM [falling, partial curve, poor fit].
Regarding `CCOC(=O)c1cccc(NC(=O)CCc2nc(-c3ccccc3F)no2)c1`, the AC50 under setting [1] is 35.5 µM [rising, single point].
Turning to `CCOc1ccccc1NS(=O)(=O)c1c(C)noc1C`, the AC50 under setting [1] was 35.5 µM [rising, single point].
Consider `NCCc1ccn[nH]1`, for which the AC50 by setting is: under setting [2], 0.00355 µM [rising, full curve, poor fit]; under setting [1], 1.12 µM [rising, partial curve, poor fit].
For the molecule `COc1ccc(OC)c(NC(=O)c2cccnc2Sc2cc(C)ccc2C)c1`, under setting [1], the AC50 is 28.2 µM [rising, single point].
